Results from patent US20230159620A1, “COMPOSITIONS AND METHODS OF TREATMENT FOR VASCULAR DISEASES AND THROMBOSIS” (Washington University, priority 2021, published 2023).
At least one compound was matched to its structure with a doubt left.

Test: Arterial blood pressure response to vasoactive agents
Assay type: in vivo, mouse
Conditions: venous administration, anesthetized Svep1+/+ and Svep1−/− mice
Method: Central arterial blood pressure and heart rate were measured under inhaled 1.5% isoflurane anesthesia and while mice were maintained at 37° C. using a heating pad and rectal thermometer, as done previously. Briefly, a midline incision was performed in the neck region; the thymus, muscle, and connective tissue were dissected away to isolate the right common carotid artery. After tying it distally and clamping it proximally, an incision was made in the right common carotid artery through which a Millar pressure transducer (model SPR-1000, Houston, Tex.) was introduced, the clamp was removed, and the transducer advanced to the ascending aorta. Once instrumentation was complete, arterial blood pressure (systolic, diastolic, and mean) and heart rate were recorded via the PowerLab® data acquisition system (ADlnstruments, Colorado Springs, Colo.). The average of a 3-minute period of stable recording was reported. Data were analyzed using LabChart® 8 for 673 MAC software (ADInstruments).
To assess the blood pressure response to vasoactive agents, after baseline blood pressure measurement, dissection was performed to visualize the left internal jugular (IJ) vein as done previously. Once identified, a small incision was made and PE-10 tubing was introduced and kept in place with a 6-0 silk suture. […]

Question: With CC(=O)OCC[N+](C)(C)C [acetylcholine] as the compound, how does the “change in blood pressure” value read?
Answer: dose-dependent manner
